From ROBIN, a set of small-molecule microarray screens (doi:10.1002/anie.202211358).

Targets (5′ to 3′):
T1: TPP riboswitch RNA three-way junction, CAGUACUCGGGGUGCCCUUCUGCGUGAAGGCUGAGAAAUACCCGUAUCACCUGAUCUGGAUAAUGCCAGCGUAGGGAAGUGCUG. About 24,000 compounds screened, about 160 hits.
T2: PreQ1 riboswitch RNA pseudoknot, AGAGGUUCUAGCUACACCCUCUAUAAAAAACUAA. From B. subtilis. About 24,000 compounds screened, about 170 hits.
T3: SAM-II riboswitch RNA pseudoknot, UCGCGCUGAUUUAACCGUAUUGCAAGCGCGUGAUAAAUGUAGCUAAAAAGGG. About 21,000 compounds screened, about 200 hits.

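The test is a small-molecule microarray: each compound is printed twice on a reactive slide, and binding shows as fluorescence of the labelled oligonucleotide after washing. The data file lists only calls. An earlier report of the laboratory on the PreQ1, TPP and SAM-II riboswitches (doi:10.1038/s41467-019-09493-3) used 1 µM RNA for 2 h and required a mean Z-score above 3 (spot signal-to-noise against the whole library), a score well above that on a control array, and duplicate spots agreeing (coefficient of variation under 100); it then also set aside compounds that hit other targets, which this list keeps. The cut-offs behind this list may differ. These are primary screening calls, not affinities; a compound without a hit may have attached poorly or may still bind in solution.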 Key: 1 = hit, 0 = tested without a hit. Compounds were drawn at random from those tested, without regard to their results. A dash means that no call is listed here.

| Compound | T1 | T2 | T3 |
|---|---|---|---|
| `Oc1c(Cl)cc(Cl)c2cccnc12` | 0 | 0 | 0 |
| `Nc1cc2c(cc1C(=O)c1ccc(F)cc1)OCCO2` | 0 | 0 | 0 |
| `COc1ccc(OC)c(-c2noc(Nc3ccc(F)cc3F)n2)c1` | 0 | 0 | - |
| `NC(=O)CCn1cc(CNCc2ccc3c(c2)CCCO3)c2ccccc21` | 0 | 0 | 0 |
| `Cl.N=c1n(Cc2ccccc2)c2ccccc2n1CC(O)COc1ccc(Cl)cc1` (centres unmarked) | 0 | 0 | 0 |
| `Cc1ccccc1CN(C)C(=O)[C@@]12CNC[C@@H]1CN(S(C)(=O)=O)C2` | 0 | 0 | 0 |
| `OCCn1nc(C(O)c2ccccc2)nc1CSCC1CC1` (centres unmarked) | 0 | 0 | 0 |
| `O=C(Nc1ccc(C2=NCCN2)cc1)c1ccc(C(=O)Nc2ccc(C3=NCCN3)cc2)c(Cl)c1` | 0 | 0 | 0 |
| `COc1ccc(C)cc1Nc1nc2ccccc2c2nnc(C)n12` | 0 | 0 | 0 |
| `Nc1nc2c(c(-c3cccnc3)n1)CN(C(=O)c1sccc1Cl)C2` | 0 | 0 | 0 |
| `c1ccc(-c2cc(NC3CC3)n3cnnc3n2)cc1` | 0 | 0 | - |
| `Clc1ccc(-c2noc(-c3cccnc3NCc3ccccc3)n2)cc1` | 0 | 0 | - |
| `Cc1ccc(C2=Nc3ccc(Cl)cc3OC2)cc1` | 0 | 0 | 0 |
| `CCOCCNS(=O)(=O)c1ccc(C(=O)N2C[C@@H]3C[C@H]2CN3)cc1` | 0 | 0 | 0 |
| `COc1cc(C2C(C#N)=C(C)NC3=C2C(=O)CC(C)(C)C3)ccc1OCCO` (centres unmarked) | 0 | 0 | 0 |
| `CC1=CC2C(CC1N)C2(C)C` (centres unmarked) | 0 | 0 | 0 |
| `CC(=O)c1cccc(Nc2cc(-c3ccccc3)ncn2)c1` | 0 | 0 | - |
| `CC(=O)OCc1c(C)cc(C)c(CNC(C)c2nc3ccccc3[nH]2)c1C` (centres unmarked) | 0 | 0 | 0 |
| `Cn1ccnc1-c1cn(CCCc2nnc(N)s2)nn1` | 0 | 0 | 0 |
| `N=c1n(CCO)c2ccccc2n1Cc1ccccc1` | 0 | 0 | 0 |
| `CCOC(=O)C1=C(N)Oc2c(oc(CO)cc2=O)C1c1ccc(F)c(F)c1` (centres unmarked) | 0 | 0 | 0 |
| `N#CC1=C(N)Oc2cc(N)ccc2C1C1CCCCC1` (centres unmarked) | 0 | 0 | 0 |
| `CCOC(=O)C(C(=O)OCC)C(Nc1ccc2ccccc2c1)c1ccccc1` (centres unmarked) | 0 | 0 | 0 |
| `CC(O)c1nc2ccccc2[nH]1` (centres unmarked) | 0 | 0 | 0 |
| `Cc1ccc(Nc2cc(N3CCN(C(=O)CC(C)C)CC3)nc(C)n2)cc1` | 0 | 0 | - |
| `CC[C@@]1(O)CCN(CCCN2CCN(c3cccc(Cl)c3)CC2)C[C@H]1O` | 0 | 0 | 0 |
| `COc1ccc(C2=CC(c3ccc(OC)c(OC)c3)c3c(c4ccccc4oc3=O)O2)cc1OC` (centres unmarked) | 0 | 0 | 0 |
| `COc1ccc(Nc2oc(-c3ccc(S(=O)(=O)N4CCCC(C)C4)cc3)nc2C#N)cc1` (centres unmarked) | 0 | 0 | - |
| `O=c1c(O)c(-c2ccc(O)c(O)c2)oc2cc(O)ccc12` | 0 | 0 | 0 |
| `CCCN(Cc1ccc(SC)cc1)Cc1cccc(OCCO)c1` | 0 | 0 | 0 |
| `COc1ccccc1Nc1cc(C)nc2ccc(Cl)cc12` | 0 | 0 | 0 |
| `Cc1ccc(Nc2ncnc3c2nc2n3CCCC2)c(Cl)c1` | 0 | 0 | - |
| `CCc1nnc2c3ccccc3nc(NCCc3ccccc3)n12` | 0 | 0 | 0 |
| `CSc1cccc(CN2C[C@@H](CN3CCC(CO)CC3)[C@@H](CO)C2)c1` | 0 | 0 | 0 |
| `Cc1nccn1CCC1CCN(C(=O)C2CC3(CCNCC3)CN2C)CC1` (centres unmarked) | 0 | 0 | 0 |
| `CN(CCNc1ncnc2onc(-c3ccc(F)cc3)c12)C1CCCCC1` | 0 | 0 | - |
| `CCOC(=O)c1cc(CNCCc2nc3ccccc3[nH]2)on1` | 0 | 0 | 0 |
| `N#CC1=C(N)OC2=C(C(=O)CCC2)C1c1ccncc1` (centres unmarked) | 0 | 0 | 0 |
| `c1cc2c3c(cccc3c1)NC1(CCC3(CC1)Nc1cccc4cccc(c14)N3)N2` | 0 | 0 | 0 |
| `N#Cc1c(-c2c[nH]c(CC3CCCC3)n2)cc(-c2ccc[nH]2)nc1N` | 0 | 0 | 0 |
| `CN1CCN(C(=O)Nc2ccc([N+](=O)[O-])cc2)CC1` | 0 | 0 | 0 |
| `CCSc1ncc(CO)c(N)n1` | 0 | 0 | 0 |
| `O=[N+]([O-])c1ccc(N(CCO)CCO)c2nonc12` | 0 | 0 | 0 |
| `O=c1oc2ccccc2n1CO` | 0 | 0 | 0 |
| `OCC#Cc1csc(CN(CCN2CCOCC2)Cc2ccco2)c1` | 0 | 0 | 0 |
| `CCSc1nc(-c2ccccc2Cl)nc2c1Cc1c(CO)cnc(C)c1O2` | 0 | 0 | - |
| `Cc1ccc(-n2nnc(C(=O)Nc3ccc(C)c(Cl)c3)c2N)cc1C` | 0 | 0 | 0 |
| `Nc1n[nH]c2ncccc12` | 0 | 0 | 0 |
| `N#Cc1nc(-c2ccccc2)oc1NCc1ccccc1` | 0 | 0 | 0 |
| `Nc1csnc1C(=O)Nc1cccc(C(F)(F)F)c1` | 0 | 0 | 0 |
| `N#Cc1c(-c2c[nH]cn2)cc(-c2cc3ccccc3o2)nc1N` | 0 | 0 | 0 |
| `C=CCNC(=S)Nc1cccc([N+](=O)[O-])c1` | 0 | 0 | 0 |
| `CC[C@@]1(O)CCN(Cc2ccc(CC(=O)O)cc2)C[C@H]1O` | 0 | 0 | 0 |
| `CCOC(=O)c1cnc(Nc2nc(C)c3cc(C)cc(C)c3n2)nc1C` | 0 | 0 | 0 |
| `Cc1cc(Nc2ccc(C(=O)N3CCCCCC3)cc2)n2nc(-c3cccnc3)nc2n1` | 0 | 0 | - |
| `Cc1ccccc1N1CCCN(C(C(=O)O)c2ccc(CO)cc2)CC1` (centres unmarked) | 0 | 0 | 0 |
| `CN(C)c1ccc(CC(=O)N[C@@H]2CCNC[C@H]2O)cc1` | 0 | 0 | 0 |
| `CCOC(=O)Cc1c[nH]c(=S)[nH]c1=O` | 0 | 0 | 0 |
| `CCCC1CC(c2csc(N)n2)CCO1` (centres unmarked) | 0 | 0 | 0 |
| `CN(C)S(=O)(=O)Nc1ccc(S(=O)(=O)N2CCNC(C(=O)O)C2)cc1` (centres unmarked) | 0 | 0 | 0 |
| `CCOc1ccc(OCC)c(Nc2nc3ccccc3c3nnc(C)n23)c1` | 0 | 0 | - |
| `Nc1nnnn1N=Cc1c[nH]nc1-c1ccccc1` | 0 | 0 | 0 |
| `CS(=O)(=O)N1CCc2[nH]cnc2C12CCN(C(=O)CCO)CC2` | 0 | 0 | 0 |
| `Cc1nc2n(c1C(=O)N(C)C)CCN(CC1(O)CCCNC1)C2` (centres unmarked) | 0 | 0 | 0 |

For reference, 5 entries once more:

Compound,T1,T2,T3
CN(C)S(=O)(=O)Nc1ccc(S(=O)(=O)N2CCNC(C(=O)O)C2)cc1 (centres unmarked),0,0,0
Cc1cc(Nc2ccc(C(=O)N3CCCCCC3)cc2)n2nc(-c3cccnc3)nc2n1,0,0,-
N#CC1=C(N)Oc2cc(N)ccc2C1C1CCCCC1 (centres unmarked),0,0,0
O=C(Nc1ccc(C2=NCCN2)cc1)c1ccc(C(=O)Nc2ccc(C3=NCCN3)cc2)c(Cl)c1,0,0,0
Cc1ccccc1CN(C)C(=O)[C@@]12CNC[C@@H]1CN(S(C)(=O)=O)C2,0,0,0